Patent US11898114B2, “Reactions and methods for producing fuels” (Alliance for Sustainable Energy, LLC, priority 2020, dated 2024)
Where two headings read alike, the source gives them in different places. Marks after values point to notes of the source that are not given here.

Key:
[1] = literature / database values; cited from earlier work
[2] = Yield sooting index (YSI), doped methane/air flame; conditions: measured
[3] = literature values (Fioroni, et al.; Burger et al.); cited from earlier work
[4] = Indicated cetane number (AFIDA, ASTM D8183-18); conditions: neat, measured

Q: For CCCCCCC [n-heptane], which YSI [1] is on record?
A: Its YSI is 36.0.

Q: For CC(C)CC(C)(C)C [isooctane, Isooctane], which YSI [1] is on record?
A: The YSI was 61.7.

Q: And the YSI [2]?
A: Its YSI is 63.6.

Q: Which Cetane number [3] does the source give for COCOCOC [MM-POME2] here?
A: The Cetane number was 63*.

Q: Which Cetane number [4] does the source give for CCOCOCOCOCC [EE-POME3] here?
A: The Cetane number was 80.

Q: With Cc1ccccc1 [toluene] as the compound, how does the YSI [1] read?
A: Its YSI is 170.9.

Q: With COCOCOCOC [MM-POME3] as the compound, how does the Cetane number [3] read?
A: The Cetane number was 70*.

Q: For CCCCOCOCCCC [BB-POME1, dibutoxymethane], which YSI [1] is on record?
A: The YSI was 45^$.

Q: And the Cetane number [4]?
A: Its Cetane number is 70.

Q: What about the Cetane number [3] of the same compound?
A: The Cetane number was 67^$.

Q: And the YSI [2]?
A: The YSI was 48.

Q: With COCOCOCOCOC [MM-POME4] as the compound, how does the Cetane number [3] read?
A: Its Cetane number is 90*.
